Source: PMC9201778
Results are given in words; binding and its absence hold for the method and conditions named. In cells and extracts the contact can be indirect. Binding calls can cover weak binding; strength is not graded here.

Molecular target: Snail (rat (endogenous in NRK-52E))
Assay: co-IP; Co-IP (Supplementary Figure S1B); immunoprecipitation (Co-IP) kit (Thermo) listed under reagents; sample, precipitating antibody and conditions not told

B1: Inhibitor of differentiation 2 (Id2) (protein, UniProt P41137 1-134)
chain: MKAFSPVRSVRKNSLSDHSLGISRSKTPVDDPMSLLYNMNDCYSKLKELVPSIPQNKKVTKMEILQHVIDYILDLQIALDSHPTIVSLHHQRPGQNQTSRTPLTTLNTDISILSLQASEFPSELMSNDSKVLCG
Q: For B1, which binding is on record?
A: Its binding is “binds”.
